## Library screening results

By UniProt entry, the sequences of proteins in these tests, tags left out.
UniProt E9BF75, entry or part of it: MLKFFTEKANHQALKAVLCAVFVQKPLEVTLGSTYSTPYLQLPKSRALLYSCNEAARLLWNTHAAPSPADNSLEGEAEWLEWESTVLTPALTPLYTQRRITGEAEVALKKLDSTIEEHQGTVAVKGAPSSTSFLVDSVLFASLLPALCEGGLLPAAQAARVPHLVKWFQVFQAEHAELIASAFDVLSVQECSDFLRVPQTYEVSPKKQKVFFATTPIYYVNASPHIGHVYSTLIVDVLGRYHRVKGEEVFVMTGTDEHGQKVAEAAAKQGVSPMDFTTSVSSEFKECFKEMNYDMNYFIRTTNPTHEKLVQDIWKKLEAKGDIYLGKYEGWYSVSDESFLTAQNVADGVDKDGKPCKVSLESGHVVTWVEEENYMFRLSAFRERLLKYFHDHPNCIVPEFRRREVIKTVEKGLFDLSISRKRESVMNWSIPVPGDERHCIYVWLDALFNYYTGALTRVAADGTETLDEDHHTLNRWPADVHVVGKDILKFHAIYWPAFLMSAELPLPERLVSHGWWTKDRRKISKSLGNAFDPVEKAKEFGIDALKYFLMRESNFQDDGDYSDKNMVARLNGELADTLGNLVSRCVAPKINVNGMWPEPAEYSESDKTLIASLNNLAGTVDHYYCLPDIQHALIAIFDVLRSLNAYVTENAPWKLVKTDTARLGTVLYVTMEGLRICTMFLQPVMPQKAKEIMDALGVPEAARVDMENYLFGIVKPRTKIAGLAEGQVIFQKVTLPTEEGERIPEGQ

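Primary screen of methionyl-tRNA synthetase; the read-out is not stated. Target: Methionyl-tRNA synthetase (putative), Leishmania donovani (UniProt E9BF75). The test concentration is not given. Values are per cent inhibition. Size under these conditions: about 68,000 compounds, about 24 of them at 50% or above in at least one test.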

All values are in %.
The record does not define 0% and 100%; most values in the screen are far below 50% and negative numbers occur (in some assays of this library far below -100).
Compounds were drawn at random from those tested, without regard to their results.

- CC(C)c1nnc2n1CCN(Cc1nc(-c3ccoc3)no1)C2 : 18.7%
- COCCOc1ccc(F)cc1NCc1nc2ccccc2n1C : 22.29%
- CC(Cn1cccn1)NC(=O)c1ccsc1 (centres undefined) : 11.54%
- CCc1cnc(CN(C)C2CCN(CCNS(=O)(=O)CC)C2)o1 (centres undefined) : 9.677%
- CC(=O)N1CCCc2cc(NC(=O)NCCc3cnn(C)c3)ccc21 : 7.246%
- O=c1[nH]nc(CCCN2CCOCC2)n1Cc1cccc(F)c1 : 8.616%
- Cc1cc(NC(=O)CN2CCN(c3nc(C)cs3)C(C)C2)on1 (centres undefined) : 16.19%
- COc1ccc(CNCc2nnc3n2CC(C(F)(F)F)CC3)cc1 (centres undefined) : 4.31%
- CC(C)N1CCC(c2n[nH]cc2-c2ccnc(N)c2)C1 (centres undefined) : 7.143%
- Cc1nc(C)n(CC2CCCN(CCOc3ccccc3F)C2)n1 (centres undefined) : 3.757%
- O=C(NCC(Cc1cccc(F)c1)N1CCCC1=O)C1CCCC1 (centres undefined) : 19.25%
- O=C(Cn1ccc2sccc2c1=O)NCc1ccccc1F : 10.59%
- Cc1ccc(OCc2cccc(C(=O)N(C)CCC#N)c2)cn1 : 6.87%
- Cc1nc(C)n(CC2CCCN(CCCc3ccccc3)C2)n1 (centres undefined) : 13.11%
- CCN1CCCC(c2c(-c3ccccc3)ncn2Cc2cccnc2)C1 (centres undefined) : 5.263%
- CC(C)c1csc(C2CCCN(C(=O)c3ccc(=O)n(C)c3)C2)n1 (centres undefined) : 1.079%
- Cc1nnc2n1CCN(C(=O)c1cc(Cl)c(Br)[nH]1)C2 : 18.95%
- COc1cccc(-c2cc(NCc3nccn3C)n(C)n2)c1 : 11.35%
- Cc1cc(C)n2cc(CN3CCC(N4CCN(C)C4=O)CC3)nc2n1 : 13.17%
- OC(CN1CCC(c2ccn[nH]2)CC1)c1ccccc1F (centres undefined) : 20%
- FC1(F)CCN(Cc2ccncc2)CC12CCN(c1cccnc1)C2 (centres undefined) : 8.269%
- CC(C)c1noc(CCNC(=O)C2COc3ccccc3C2)n1 (centres undefined) : 2.941%
- COCCO[C@H]1CCN(Cc2ccsc2)[C@H]1Cc1cccnc1 : 7.614%
- CO[C@H]1CN(Cc2ccc(F)cc2)CC[C@@]12CCCO2 : 5.788%
- c1cncc(CO[C@H]2CN(Cc3ccco3)[C@@H]3COC[C@H]23)c1 : 15.5%
- Cc1nc2ccccn2c1CN1C[C@@H](CN(C)C)[C@@H](CO)C1 : 20.49%
- Cc1cccc2nc(C(=O)N3CCCC[C@]4(C)NC(=O)CCC[C@H]34)cn12 : 9.003%
- CCCN1CCC(Nc2nc(CC)ns2)CC1 : 11.28%
- CC(CNC(=O)N1CCN(Cc2ccon2)CC1)N(C)C1CC1 (centres undefined) : 4.775%
- Cc1nc(CN(C)C2CCCN(c3ccccc3)C2)no1 (centres undefined) : 22.51%
- O=C(NCC1CCOCC1)c1cc(-c2ccncc2)c2cnccc2n1 : 10.48%
- Cc1c(CNCCCOc2cccnc2)c2ccccc2n1CC(N)=O : 9.589%
- FC(F)(F)c1ccccc1CCC1CCCN(Cc2cscn2)C1 (centres undefined) : -2.405%
- CNC(=O)N1CCN(C(=O)C(C)C)CC2(CC(=O)N(C)C2)C1 (centres undefined) : 12.41%
- O=C(O)Cn1nc(C2CC2)c2c(-c3ccc(F)cc3)ccnc21 : 16.67%
- Cc1n[nH]cc1CNC1(c2ccc(F)cc2)CCCC1 : 12.78%
- CC(C)CN(CC(F)(F)F)S(=O)(=O)c1cc(C(N)=O)n(C)c1 : 13.28%
- Cc1ccc(-c2nc(C3CCN(C(=O)c4cnn(C)c4)CC3)no2)cn1 : 5.975%
- COCCC(=O)N(Cc1cccnc1)CC1CCN(C2CCCC2)CC1 : 6.443%
- O=C(NCCc1cccc(F)c1)NCC(O)c1cccc(F)c1 (centres undefined) : 15.03%
- CC(C)N1CCCC1c1cc(CO)[nH]n1 (centres undefined) : 17.08%

From ChEMBL document CHEMBL3988442, “University of Dundee, Small-Polar-MMV Screening Library” (2021).